Several values for one entry are separate records, joined by “and”; a condition that tells them apart may be missing. Equal values may be shown once. Among all 390,000 compounds or so, about 820 (0.21%) were called active. The inconclusive results got no clear call from the source; some entries with a clear call stand among them for comparison. Calls come from the whole dose curve; as a rule, active = well fitted inhibition curve with a large enough effect; inconclusive = small, poorly fitted or top-dose-only effect, or another doubt; inactive = no such curve, though single readings can be large or run the other way. Where the call is inconclusive, the potency comes from a doubtful curve fit. A structure can be active in one record and inactive in another.
These molecules were tested against Histone acetyltransferase KAT2A (Homo sapiens) (UniProt Q92830) (assay: qHTS Assay for Inhibitors of GCN5L2). Settings: GCN5L2 HAT assay, ThioGlo1 CoA-SH fluorescence; activity change, negative = inhibition: at 58.9 µM (top of the series) unless noted.
How it was run: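 Compounds, pin-transferred from DMSO stocks, meet 20nM GCN5L2 for 15 min before the reaction begins with H3(1-25) peptide (75uM) and acetyl-CoA (70uM). Thiol-reactive ThioGlo1 reports CoA release over 20 min at room temperature.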
% is set by controls: 0 for no effect and ±100 for the full control effect; potency is the fitted concentration of half-maximal effect.

Protein sequences, listed by entry. Tags and fused reporters are not part of them.
UniProt Q92830, whole entry, looked up: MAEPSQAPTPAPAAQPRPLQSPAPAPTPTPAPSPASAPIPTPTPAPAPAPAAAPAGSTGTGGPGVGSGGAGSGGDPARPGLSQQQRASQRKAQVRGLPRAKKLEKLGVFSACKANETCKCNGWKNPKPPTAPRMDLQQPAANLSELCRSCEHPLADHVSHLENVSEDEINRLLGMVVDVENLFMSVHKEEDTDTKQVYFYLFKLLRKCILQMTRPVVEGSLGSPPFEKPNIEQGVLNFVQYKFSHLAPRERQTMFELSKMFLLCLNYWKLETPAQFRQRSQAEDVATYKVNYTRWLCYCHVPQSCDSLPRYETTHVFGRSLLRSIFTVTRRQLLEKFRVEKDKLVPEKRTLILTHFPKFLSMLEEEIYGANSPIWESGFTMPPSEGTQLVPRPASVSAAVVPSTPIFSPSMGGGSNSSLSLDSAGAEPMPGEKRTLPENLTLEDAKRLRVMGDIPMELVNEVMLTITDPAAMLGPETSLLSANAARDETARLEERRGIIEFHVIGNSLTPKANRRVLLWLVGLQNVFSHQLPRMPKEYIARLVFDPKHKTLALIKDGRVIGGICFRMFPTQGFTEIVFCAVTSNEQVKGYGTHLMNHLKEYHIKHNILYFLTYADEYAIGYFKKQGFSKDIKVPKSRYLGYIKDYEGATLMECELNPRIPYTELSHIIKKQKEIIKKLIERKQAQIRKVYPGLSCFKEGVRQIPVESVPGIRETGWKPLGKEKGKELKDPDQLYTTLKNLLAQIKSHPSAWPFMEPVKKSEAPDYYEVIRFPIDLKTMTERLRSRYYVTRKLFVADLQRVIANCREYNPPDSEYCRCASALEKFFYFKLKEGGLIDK

SMILES | Potency | activity change, negative = inhibition
Cc1ccc(NC(=S)N(Cc2cccs2)Cc2cc3cccc(C)c3[nH]c2=O)cc1 | inconclusive: 39.8 µM [inhibitor, single point] | –
Cc1cc(NC(=O)COC(=O)C(Nc2ccc(C(F)(F)F)cc2Cl)C(C)C)no1 (configuration not stated) | inconclusive: 3.55 µM [inhibitor, partial curve] | –
NC(=O)c1c(NC(=O)CN2C(=O)NC(Cc3ccccc3)C2=O)sc2c1CCC2 (configuration not stated) | inconclusive: 39.8 µM [inhibitor, single point] | –
S=c1[nH]c2ccc(Cl)cc2s1 | inconclusive: 28.2 µM [inhibitor, single point] | –
CCOC(=O)C1=C(COc2ccccc2)NC(=O)NC1c1cccc([N+](=O)[O-])c1 (configuration not stated) | – | inactive: -23.5%
O=C(Cc1cccc2ccccc12)Nc1ccc(-c2cc3ccccc3oc2=O)cc1 | inconclusive: 39.8 µM [inhibitor, single point] | –
COc1cccc(CN(C)C(=O)c2cc(-c3ccc(F)cc3)nc3ccccc23)c1 | inconclusive: 10 µM [inhibitor, partial curve] | –
COc1ccc(C[C@@](C)(N)C(=O)O)cc1OC | – | inactive: 5.3% [at 21.4 µM]
CCOc1ccc(NS(=O)(=O)c2c(C)nc3sccn3c2=O)cc1 | inconclusive: 0.631 µM [inhibitor, partial curve, poor fit] | –
CCC1CCCCN1C(=O)c1ccc(OC2CCN(C(=O)CCOC)CC2)cc1 (configuration not stated) | – | inactive: -13.9%
COc1ccc(-c2cc(C(=O)Oc3ccc(C#N)cc3)no2)cc1 | inconclusive: 39.8 µM [inhibitor, single point] | –
CCOC(=O)Cc1csc(NC(=O)Nc2ccc(OC(F)(F)F)cc2)n1 | inconclusive: 35.5 µM [inhibitor, single point] | –
C=CCNC(=O)COC(=O)C1CCN(S(=O)(=O)c2ccc3c(c2)OCCO3)CC1 | inconclusive: 31.6 µM [inhibitor, single point] | –
CCOc1ccc(-n2ccnc(SCC(=O)Nc3cccc(OC)c3)c2=O)cc1 | inconclusive: 39.8 µM [inhibitor, single point] | –
NC(N)=N/N=C/c1ccccc1 | – | inactive: -0.776%
CCOc1ccc(N2CC(C(=O)NCc3cccc(C)c3)CC2=O)cc1 (configuration not stated) | inconclusive: 28.2 µM [inhibitor, partial curve] | –
COc1ccc(-c2cccc(-c3cc(=O)oc4cc(OC)c(OC)c(OC)c34)c2)cc1 | inconclusive: 25.1 µM [inhibitor, single point] | –
CCOC(=O)c1cnc2nc(C)[nH]n2c1=O | inconclusive: 0.316 µM [inhibitor, full curve, poor fit] | –
O=C(Nc1ccccc1F)c1ccc2nc(N3C(=O)CCC3=O)sc2c1 | inconclusive: 0.794 µM [inhibitor, single point] | –
CC1CC(C)(C)N2C(=O)C3(Nc4ccccc4S3)c3cccc1c32 (configuration not stated) | – | inactive: -18.1%
Cc1ccc(C(C(=O)NCC2CCCO2)N(Cc2ccccc2)C(=O)c2ccc(-c3ccccc3)[nH]2)o1 (configuration not stated) | inconclusive: 25.1 µM [inhibitor, single point] | –
CC(C)C(C(=O)O)N1C(=O)/C(=C/c2cccn2C)SC1=S (configuration not stated) | – | inactive: -5.51%
O=C1C2=C(C(=O)c3ccccc31)C1O[C@](CCCCN3C(=O)c4ccccc4C3=O)(Cc3ccccc31)O2 | inconclusive: 6.31 µM [inhibitor, single point] | –

SMILES | Potency | activity change, negative = inhibition
N#Cc1c(Cl)c(Cl)c2nnc(-c3ccc(Br)cc3)n2c1Cl | inconclusive: 0.794 µM [inhibitor, single point] | –
S=C(NCc1ccccc1)NNc1nc2ccccc2[nH]1 | inconclusive: 22.4 µM [inhibitor, partial curve] | –
COc1ccc(Nc2nc(C)cc(C)c2C(N)=O)cc1OC | inconclusive: 39.8 µM [inhibitor, single point] | –
COc1cc2c(cc1OC)-c1cc3nc4ccccc4nc3n1C(C)(C)C2 | inconclusive: 28.2 µM [inhibitor, partial curve, poor fit] | –
CC(C)c1nc(CN(C)C(=O)N[C@H](C(=O)N[C@@H](Cc2ccccc2)C[C@H](O)[C@H](Cc2ccccc2)NC(=O)OCc2cncs2)C(C)C)cs1 | inactive and active: 28.2 µM | –
COCCNC(=O)CCCn1c(SCc2ccccc2C)nc2c(sc3ccccc32)c1=O | – | inactive: 4.85%
Cc1nc(NC(=O)c2ccco2)sc1C(=O)O | – | inactive: -7.59%
O=C(Cn1cc2c(n1)CCCCC2)Nc1ccccc1Br | – | inactive: -18.6%
Cn1c(C(=O)NCCN2CCOCC2)cc2c(=O)n3ccccc3nc21 | inconclusive: 22.4 µM [inhibitor, partial curve] | –
COc1ccc(CCNC(=O)[C@H](C)NC(=O)[C@@H]2CSC3c4ccccc4C(=O)N32)cc1 (some centres not stated) | inconclusive: 1.41 µM [inhibitor, full curve, poor fit] | –
Cc1ccc(S(=O)(=O)N(C)c2nc3ccccc3[nH]c2=S)cc1 | inconclusive: 0.794 µM [inhibitor, partial curve] | –
Cc1nnc(SCC(=O)NC2CCCCC2C)s1 (configuration not stated) | inconclusive: 25.1 µM [inhibitor, single point] | –
COc1ccc(N(CC(=O)NCCSCc2ccc(C)cc2)S(=O)(=O)c2ccccc2)cc1 | inconclusive: 5.62 µM [inhibitor, full curve, poor fit] | –
COc1ccc(N2Cc3cccc(C(=O)Nc4cccc(F)c4)c3C2=O)cc1 | inconclusive: 31.6 µM [inhibitor, single point] | –
CN1CCN(C(c2cccs2)c2nnnn2Cc2ccc(F)cc2)CC1 (configuration not stated) | inconclusive: 0.158 µM [inhibitor, full curve] | –
Cc1ccc(CNC(=O)c2c[nH]n3c(=O)c(Cc4ccc(F)cc4Cl)c(C)nc23)cc1 | active: 35.5 µM | –
O=C(N/N=C/c1cccnc1)c1ccc([N+](=O)[O-])cc1 | inconclusive: 0.794 µM [inhibitor, single point] | –
O=c1cc(CN2CCOCC2)c2cc(Cl)c(O)cc2o1 | inconclusive: 31.6 µM [inhibitor, partial curve] | –
O=C(Nc1nc(-c2ccco2)c(-c2ccco2)s1)C1CC(=O)N(c2ccc3c(c2)OCCO3)C1 (configuration not stated) | inconclusive: 8.91 µM [inhibitor, partial curve] | –
CC(C)Cn1c(C(C)C)nc([N+](=O)[O-])c1S(=O)(=O)c1ccc(F)cc1 | inconclusive: 39.8 µM [inhibitor, single point] | –
Cc1cc(C)c2c(=O)n(CC(=O)Nc3cccc(Cl)c3C)sc2n1 | inconclusive: 39.8 µM [inhibitor, single point] | –
C=CCN(c1ccccc1)S(=O)(=O)c1cc2c(cc1C)NC(=O)CO2 | inconclusive: 8.91 µM [inhibitor, partial curve, poor fit] | –
CCOC(=O)CSc1nc2ccccc2n1CC(=O)N1CCN(c2ccccc2)CC1 | inconclusive: 0.631 µM [inhibitor, partial curve, poor fit] | –

In a second layout: entries from further up.
SMILES,Potency,"activity change, negative = inhibition"
N#Cc1c(Cl)c(Cl)c2nnc(-c3ccc(Br)cc3)n2c1Cl,"inconclusive: 0.794 µM [inhibitor, single point]",–
S=C(NCc1ccccc1)NNc1nc2ccccc2[nH]1,"inconclusive: 22.4 µM [inhibitor, partial curve]",–
COc1ccc(Nc2nc(C)cc(C)c2C(N)=O)cc1OC,"inconclusive: 39.8 µM [inhibitor, single point]",–
COc1cc2c(cc1OC)-c1cc3nc4ccccc4nc3n1C(C)(C)C2,"inconclusive: 28.2 µM [inhibitor, partial curve, poor fit]",–
CC(C)c1nc(CN(C)C(=O)N[C@H](C(=O)N[C@@H](Cc2ccccc2)C[C@H](O)[C@H](Cc2ccccc2)NC(=O)OCc2cncs2)C(C)C)cs1,inactive and active: 28.2 µM,–
COCCNC(=O)CCCn1c(SCc2ccccc2C)nc2c(sc3ccccc32)c1=O,–,inactive: 4.85%
Cc1nc(NC(=O)c2ccco2)sc1C(=O)O,–,inactive: -7.59%
O=C(Cn1cc2c(n1)CCCCC2)Nc1ccccc1Br,–,inactive: -18.6%
Cn1c(C(=O)NCCN2CCOCC2)cc2c(=O)n3ccccc3nc21,"inconclusive: 22.4 µM [inhibitor, partial curve]",–
COc1ccc(CCNC(=O)[C@H](C)NC(=O)[C@@H]2CSC3c4ccccc4C(=O)N32)cc1 (some centres not stated),"inconclusive: 1.41 µM [inhibitor, full curve, poor fit]",–
Cc1ccc(S(=O)(=O)N(C)c2nc3ccccc3[nH]c2=S)cc1,"inconclusive: 0.794 µM [inhibitor, partial curve]",–
Cc1nnc(SCC(=O)NC2CCCCC2C)s1 (configuration not stated),"inconclusive: 25.1 µM [inhibitor, single point]",–
COc1ccc(N(CC(=O)NCCSCc2ccc(C)cc2)S(=O)(=O)c2ccccc2)cc1,"inconclusive: 5.62 µM [inhibitor, full curve, poor fit]",–
COc1ccc(N2Cc3cccc(C(=O)Nc4cccc(F)c4)c3C2=O)cc1,"inconclusive: 31.6 µM [inhibitor, single point]",–
CN1CCN(C(c2cccs2)c2nnnn2Cc2ccc(F)cc2)CC1 (configuration not stated),"inconclusive: 0.158 µM [inhibitor, full curve]",–
Cc1ccc(CNC(=O)c2c[nH]n3c(=O)c(Cc4ccc(F)cc4Cl)c(C)nc23)cc1,active: 35.5 µM,–
O=C(N/N=C/c1cccnc1)c1ccc([N+](=O)[O-])cc1,"inconclusive: 0.794 µM [inhibitor, single point]",–
O=c1cc(CN2CCOCC2)c2cc(Cl)c(O)cc2o1,"inconclusive: 31.6 µM [inhibitor, partial curve]",–
O=C(Nc1nc(-c2ccco2)c(-c2ccco2)s1)C1CC(=O)N(c2ccc3c(c2)OCCO3)C1 (configuration not stated),"inconclusive: 8.91 µM [inhibitor, partial curve]",–
CC(C)Cn1c(C(C)C)nc([N+](=O)[O-])c1S(=O)(=O)c1ccc(F)cc1,"inconclusive: 39.8 µM [inhibitor, single point]",–
Cc1cc(C)c2c(=O)n(CC(=O)Nc3cccc(Cl)c3C)sc2n1,"inconclusive: 39.8 µM [inhibitor, single point]",–

Remaining list, next part.

SMILES | Potency | activity change, negative = inhibition
CCS(=O)(=O)N1CCC(C(=O)Nc2ccc3c(c2)CCC3)CC1 | inconclusive: 0.316 µM [inhibitor, full curve, poor fit] | –
CC(=O)c1c(C)[nH]c(C(=O)N2CCc3ccccc3C2)c1C | inconclusive: 0.794 µM [inhibitor, partial curve, poor fit] | –
CCc1cc(=O)oc2cc(C)cc(OC(C)C(=O)O)c12 (configuration not stated) | inconclusive: 39.8 µM [inhibitor, single point] | –
Clc1cccc(Oc2cnns2)c1Cl | inconclusive: 8.91 µM [inhibitor, single point] | –
Cn1cnnc1SCc1cccc(Br)c1 | inconclusive: 0.501 µM [inhibitor, single point] | –
CCc1ccc(NC(=S)N(Cc2ccc(Cl)cc2)Cc2ccc(C(=O)O)cc2)cc1 | inconclusive: 39.8 µM [inhibitor, single point] | –
O=C(O)C1CCCCC1C(=O)NCCCN1CCOCC1 (configuration not stated) | inconclusive: 6.31 µM [inhibitor, single point] | –
CSc1nc(-c2cccs2)c(C#N)c(=O)[nH]1 | – | inactive: -5.31%
Cc1ccc2c(C)c(C(=O)N(Cc3ccncc3)CC3CCCO3)oc2c1C (configuration not stated) | inconclusive: 7.94 µM [inhibitor, single point] | –
CSc1ccccc1NC(=O)CN1CCCCC1C (configuration not stated) | – | inactive: 2.96%
COC(=O)c1ccccc1NC(=O)N1CCc2ccc(NC(=O)c3ccccn3)cc2C1 | inconclusive: 15.8 µM [inhibitor, partial curve, poor fit] | –
COC(=O)c1ccc2c(=O)n(CCCCCC(=O)N3CCN(c4cc(Cl)ccc4C)CC3)c(=O)[nH]c2c1 | – | inactive: -6.09%
COc1cccc(CNC(=O)c2ccc(-c3nc(CS(=O)(=O)c4ccccc4)c(C)o3)cc2)c1 | – | inactive: -6.12%
COCCCNc1ncnc2sc3c(c12)CCC(C)C3 (configuration not stated) | – | inactive: -8.54%
CC(=O)Nc1ccc(S(=O)(=O)NCc2ccc(C(=O)NCc3ccc(Cl)cc3)cc2)cc1 | inconclusive: 31.6 µM [inhibitor, single point] | –
O=C(O)c1cc(-c2ccco2)nc2ccc(Br)cc12 | inconclusive: 20 µM [inhibitor, partial curve] | –
Cc1ccc(NC(=O)CSc2nnc([C@H](C)NC(=O)OC(C)(C)C)o2)c(C)c1 | – | inactive: -0.307%
CC1CCCN(Cc2nc3c(c(=O)n(C)c(=O)n3C)n2Cc2ccc(Cl)cc2Cl)C1 (configuration not stated) | – | inactive: 1.11%
CC(C)(C)C1CCc2c(sc(NC(=O)CCC(=O)O)c2C(=O)Nc2ccccc2C(F)(F)F)C1 (configuration not stated) | inconclusive: 39.8 µM [inhibitor, single point] | –
COC(=O)C(Cc1c[nH]c2ccccc12)NC(=O)c1ccc2nc[nH]c2c1 (configuration not stated) | – | inactive: -13.3%
CC(=O)COc1cccc2ccc(/C=C/c3ccc(Br)s3)nc12 | inconclusive: 31.6 µM [inhibitor, single point] | –

— PubChem BioAssay AID504327 (National Center for Advancing Translational Sciences (NCATS), 2011)
